PubChem BioAssay AID1508597 | Cure First | 2020
Shown is a random part of the about 2,100 reagents, in one setting of the screen. 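Calls flag viability under 80% in either arm, not effects specific to rucaparib; the reference for percent is not stated.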 Some reagents were tested in more than one well and are listed for each. Not given: the 100% reference.

Aim: 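Genes whose silencing sensitises or protects ovarian cancer cells against rucaparib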 (primary screen)
Cell system: human ovarian carcinoma lines grown from tumours: OCI-P5x (papillary serous) and OCI-C5x (clear cell)
Reagent: siRNA pool against human genes, 1.25 pmol siRNA per well
Duration: 72 h or 96 h, depending on the cell culture
Challenge: rucaparib 20 µM (about IC30) or vehicle, present until read-out
Rucaparib or vehicle: Vehicle
Cell line: OCI-C5x (clear cell)
Detection: 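Luminescent ATP-based viability assay read 72 or 96 h after transfection, depending on culture, given as normalised percent viability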
Reading the numbers: viability, normalised: higher = more viable cells remaining
Active means: 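Active when normalised viability falls below 80 percent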
Calls: active = viability under 80%; inactive = viability 80% or more

no.	target gene	technical replicate	viability, normalised (%)	outcome
1	BORA (BORA aurora kinase A activator)	1	24.5	active
2	BORA (BORA aurora kinase A activator)	2	34.1	active
3	BORA (BORA aurora kinase A activator)	3	21.1	active
4	SETDB2 (SET domain bifurcated histone lysine methyltransferase 2)	1	32.7	active
5	SETDB2 (SET domain bifurcated histone lysine methyltransferase 2)	2	25.1	active
6	SETDB2 (SET domain bifurcated histone lysine methyltransferase 2)	3	30.8	active
7	UCK2 (uridine-cytidine kinase 2)	1	40	active
8	UCK2 (uridine-cytidine kinase 2)	2	42	active
9	UCK2 (uridine-cytidine kinase 2)	3	40.4	active
10	MTA2 (metastasis associated 1 family member 2)	1	55.8	active
11	MTA2 (metastasis associated 1 family member 2)	2	57.4	active
12	MTA2 (metastasis associated 1 family member 2)	3	58.8	active
13	PRKCB (protein kinase C beta)	1	38	active
14	PRKCB (protein kinase C beta)	1	125	inactive
15	PRKCB (protein kinase C beta)	2	47.1	active
16	PRKCB (protein kinase C beta)	2	26.2	active
17	PRKCB (protein kinase C beta)	3	37.1	active
18	PRKCB (protein kinase C beta)	3	60.9	active
19	TAF5 (TATA-box binding protein associated factor 5)	1	49	active
20	TAF5 (TATA-box binding protein associated factor 5)	2	51.7	active
21	TAF5 (TATA-box binding protein associated factor 5)	3	41.9	active
22	PIK3C2G	1	64.2	active
23	PIK3C2G	2	85.7	inactive
24	PIK3C2G	3	51.4	active

Targets above whose gene name begins with S or s:
target gene	technical replicate	viability, normalised (%)	outcome
SETDB2 (SET domain bifurcated histone lysine methyltransferase 2)	1	32.7	active
SETDB2 (SET domain bifurcated histone lysine methyltransferase 2)	2	25.1	active
SETDB2 (SET domain bifurcated histone lysine methyltransferase 2)	3	30.8	active
